Measurements reported in PubChem BioAssay AID686943 (Drosophila RNAi Screening Center, 2013)

Assay: 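Fly genes whose loss alters ERK activation after insulin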 (primary screen)
Cell system: Drosophila S2R+ haemocyte-like cells expressing YFP-tagged ERK (Rolled)
Reagent: long dsRNA against Drosophila genes
Challenge: insulin stimulation versus unstimulated cells; dose and duration not given
Read-out: 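Antibody staining for doubly phosphorylated ERK divided by ERK-YFP signal, as plate z-scores, in insulin-treated and untreated cells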
Scale: replicate 1, z-score of dpERK with insulin: higher = more active ERK per ERK-YFP after insulin
The screen tested about 23,000 reagents; this is a random part of those with a known target gene and a result. 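Extra replicates exist only for a retested subset of genes; insulin dose and duration not given; both raised and lowered dpERK matter.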 Reagents against one gene are numbered here. A plus sign joins genes that one reagent is predicted to hit. Further read-outs or replicates are left out here. The record does not give: the amount of reagent, the time to read-out.

replicate 1, z-score of dpERK with insulin, by gene and reagent
Rbsn-5 (GeneID 34110): #1 -0.48
asrij (GeneID 37637): #1 -0.68
bigmax (GeneID 43293): #1 1.76
spirit (GeneID 31797): #1 -0.38
mEFTu1 (GeneID 44438): #1 -0.1
Rpn3 (GeneID 35176): #1 -0.73
CG4983 (GeneID 34585): #1 0.37
Rab6 (GeneID 34636): #1 -0.51
CG33557 (GeneID 3346145): #1 0.08
opm (GeneID 32435): #1 0.41; #2 2.74
CG31952 (GeneID 326179): #1 -0.4; #2 -0.32
ttm3 (GeneID 35437): #1 1.01
Blm + CG14721: #1 -0.22
CG5506 (GeneID 39992): #1 1.14
CG33285 (GeneID 2768988): #1 0.79
CG31265 (GeneID 42068): #1 0.51
Ctps (GeneID 39645): #1 -0.05; #2 1.64; #3 -3.59
CG15905 (GeneID 37257): #1 0.34
CG9628 (GeneID 39593): #1 0.88
CkIIalpha-i3 (GeneID 38088): #1 -1.39
CG6664 (GeneID 39903): #1 0.22
CG9536 (GeneID 33904): #1 0.01
NLaz (GeneID 33324): #1 0.22

Entries listed so far whose gene name starts with R or r:
replicate 1, z-score of dpERK with insulin, by gene and reagent
Rbsn-5 (GeneID 34110): #1 -0.48
Rpn3 (GeneID 35176): #1 -0.73
Rab6 (GeneID 34636): #1 -0.51

More entries follow.
replicate 1, z-score of dpERK with insulin, by gene and reagent
CenG1A (GeneID 34803): #1 -0.69; #2 0.31; #3 0.66
CG18180 (GeneID 39125): #1 0.13
CG43090 (GeneID 12798122): #1 -0.07
primo-2 + primo-1: #1 0.42
Girdin (GeneID 38385): #1 -0.23
Paf-AHalpha (GeneID 32529): #1 0.48
CG11052 (GeneID 49997): #1 -0.5
Syb (GeneID 36080): #1 0.58
CG1603 (GeneID 35683): #1 1.09
CG17855 (GeneID 34269): #1 -0.09
CG2681 (GeneID 31258): #1 2.36
Syt7 (GeneID 43783): #1 0.24; #2 0.4
exd (GeneID 32567): #1 0.11
CG15914 (GeneID 32542): #1 0.22
Bin1 (GeneID 41965): #1 0.62
CG31296 (GeneID 318668): #1 0.94
Reck (GeneID 39629): #1 0; #2 -0.81
Spn42Dc (GeneID 35600): #1 0.91
TP53INP (GeneID 38543): #1 0.69; #2 0.99
ort (GeneID 45910): #1 0.59
CG3038 (GeneID 30970): #1 -1.9
CG42307 + mus312: #1 0.73
CG5359 (GeneID 41222): #1 0.05
CG2901 (GeneID 31338): #1 -0.48
RpS16 (GeneID 37580): #1 -1.48
